# Results published in PubChem BioAssay AID1347423 (Functional Genomics Laboratory (NCATS/FGL), 2020).
# Among all 52,000 sequences or so, about 210 (0.4%) were called active.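 The calls were made as follows: active = gene whose silencing raises cell survival under the drug, median off-target-corrected z-score across its silencing RNAs 2 or more; inactive = the rest.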 This is one part of the list.
# Assay: Resistance to Poly (ADP-Ribose) Polymerase inhibitor: Gene Identification via Genome-wide siRNA Screen
# Settings: mouse BRCA2 R2336H ES cells, olaparib, CellTiter-Glo viability; active compounds read high
# Outline: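 Mouse BRCA2 R2336H ES cells were reverse-transfected with siRNA (20 nM final), treated at 48 h with 500 nM olaparib, and read by CellTiter-Glo after 72 h. Scores: MAD-based z per siRNA, median per gene, seed off-target correction.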
row,Sequence,z-score
1,GCAUGUUUUACAGUGUUCATT against Lgr7,inactive: 0.314
2,GGCGGAGGAUCUUACUAUCTT against Foxf1a,inactive: 0.486
3,GGCCAUGGUCAUGGACAUGTT against Itpr3,inactive: 0.814
4,GGCGGUUAAACCACAGCGUTT against Snapap,inactive: 0.387
5,GGAGGAGCAUCCUUCAACUTT against A230020G22Rik,inactive: 2.82
6,GGGCUCUUUAUCCUUUCCUTT against Cer1,inactive: -0.322
7,GGAGGAACAUAUGCUCAGATT against 1110031B11Rik,inactive: -3.44
8,GGAGGAAAGAAUCGAUUUATT against Slc5a4a,inactive: -0.139
9,GCUGAUCAAGGACUAUCGGTT against Ywhaq,inactive: -0.347
10,ACAACAUGAUUGUCGUGGATT against Ugt1a6,inactive: 0.282
11,GGAAAAUUGGAACAAUCCATT against Sval2,inactive: 0.272
12,CUCAGUUCUUCUUCUUUUCTT against Olfr12,inactive: 0.475
13,CCAAAGAUGCUGGUAGAUUTT against Olfr1140,inactive: -0.721
14,GGUAUUUCCGGAUCUUCAUTT against 9130011J15Rik,inactive: -1.32
15,GGAGUGUGAUCAAGUUCAUTT against Eya4,inactive: 0.648
16,GCAGUGUUUUACGACUUGATT against BC030477,inactive: 1.08
17,GGAACCGUAGCUUGUCUGCTT against 1110029E03Rik,inactive: 0.223
18,CCUCGUAGGGCCUAUGGUATT against Pscd4,inactive: 0.776
19,GGCCCAAACUUACAGCUGUTT against Ptges2,inactive: 0.594
20,GCAUUCAUCAGGGUUGAUUTT against 2310040A13Rik,inactive: -0.137
21,GCUACCUAAUGAAGAGGCCTT against Rgnef,inactive: 0.256
22,CCUACUUGACGAAGGCCUATT against Ndufb10,inactive: 0.0845
23,GGAAAAGAAGAGGAAAUUCTT against Smarce1,inactive: -1.01
24,GGGUCUCCAAUCCCUCAGUTT against Kirl2,inactive: -0.351
25,GAACGGGCAUAUGUUCAACTT against Mgst3,inactive: -0.404
26,GGCAUUCCUACAGUUCAGATT against Mrpl46,inactive: 1.18

row,Sequence,z-score
1,GGAGCCUGAAUGCUGUAUUTT against 1700063I17Rik,inactive: 0.415
2,GGGCAAUACUAAAUAAAAGTT against 4933439F18Rik,inactive: 0.225
3,GGAGAAGGUAGUUCUGAAATT against Slc7a11,inactive: -1.61
4,CCUCCACUUGCCAUAUUGUTT against 5730559C18Rik,inactive: -0.99
5,GGCCGACAAGCGAUCAAAATT against AU040829,inactive: -0.237
6,CCUUUUCACAGAGAGCUGCTT against Tex264,inactive: -1.1
7,CCUAAUGUACACUAACUAUTT against Dhrs10,inactive: 0.688
8,GGUAGCAAAUCCAACAAGATT against Slamf1,inactive: -0.727
9,GCAAGACCCAAGAGUUACATT against Soat2,inactive: 0.14
10,GGAGAAGACCUGAUUCCAGTT against Zfx,inactive: -1.22
11,GGAAAAAAAGGAGUGGGCATT against Klra6,inactive: -0.0179
12,GGAGUUUUGGGUGAUGAUATT against Olfr974,inactive: -2.33
13,CCGUAUCGAUGUGACAUAUTT against Zfp94,inactive: 1.5
14,GCCUUUAUACUAGCAGCCATT against Olfr827,inactive: 0.361
15,GCCAGCCAUUGUACCAUGATT against Ttc15,inactive: -0.476
16,GGUCCAGAAGAAAUAAACATT against Kcnn1,inactive: 0.222
17,CCACUAAUCGAGUUGGUGCTT against Pigf,inactive: 0.712
18,GGCUUUAAGAACUGGGCCCTT against Mgl1,inactive: 0.22
19,GGACUUUGAAAAAGAUGCATT against Fkbp7,inactive: 0.208
20,GCGGUAUGAUCUAGUAGUGTT against 4930488P06Rik,inactive: -1.98
21,GGCCAAAUGGACAAUCCAUTT against D330014H01Rik,inactive: 0.667
22,GACCAACCCUCACUAAGCUTT against Tcstv3,inactive: -2.63
23,GGUUUUGUAGGAGUCUCUCTT against V1ra9,inactive: 0.161
24,GGCAGCUGCUGACUUGAUGTT against Gng2,inactive: -0.376
25,CCCUUGGUUAUGGAGAAAGTT against Mcoln2,inactive: -0.000713
26,GCAGCAUCGCUAUGUCCUGTT against LOC541307,inactive: 0.152

row,Sequence,z-score
1,GGCUGGUACUCCAUUUUAGTT against Neil2,inactive: 0.791
2,CCGGCAGACCUGUGACAUUTT against Rgs14,inactive: 1.16
3,GUGAGACCAAGUUACAGGATT against Olfr1504,inactive: 0.548
4,GGCUUUAGCUAGUGCUAGGTT against Marveld1,inactive: -0.951
5,CCCAAAGCUAUCAUAUCAATT against Laf4l,inactive: 0.688
6,GGCCCAUAAUUAAAUGUUUTT against Stac2,inactive: 0.15
7,GCAACCUGCAGGCAGUAACTT against Nolc1,inactive: 0.264
8,GGAAGAUGACCAAGAAGCUTT against Ddx42,inactive: -0.838
9,GGGUAGGAUUGAAAAGUUUTT against Trh,inactive: -0.716
10,GGAAGCAAGUAUCCCGAAUTT against A930034L06Rik,inactive: 1.74
11,CCCUUGCUUGUCGGAAUCUTT against Chchd7,inactive: -0.137
12,GGUGAUCCCAUUGUUUAUUTT against Gm784,inactive: 1.66
13,GGCAUAUCAUUUGUAGGAUTT against Olfr73,inactive: 0.00778
14,CUUUGAGCUUGGAAGUAAATT against bM64F17.1,inactive: 0.0365
15,GCCCUUGAACGGAGAAUAGTT against 6720456B07Rik,inactive: -1.56
16,GGAAGACAGUAGGAAGAAATT against Eif2s2,inactive: -1.28
17,CUACAGUGGCAAUAAUAUUTT against Rpl30,inactive: -2.78
18,GGUCAUCCAGCUAUCUGAUTT against 4930572I07Rik,inactive: 0.811
19,GGCUUGAUUGCAUCUUUAUTT against Ebpl,inactive: 2.44
20,GGUCUUAAUUCUGAAGGACTT against Chn1,inactive: -0.304
21,GCAACUACCCUCUAAAGUCTT against Man1b1,inactive: 0.232
22,CCUGAUCCCGGUGUAUCAUTT against Mrpl38,inactive: 2.02
23,GGCCGUUGUUGUAAAUAAATT against Rpo1-1,inactive: -0.492
24,GGAUUCUGUGCUUUCCUGGTT against Pomt2,inactive: 0.579
25,GGACUUGAGAAAAGAUUAUTT against 1300007L22Rik,inactive: 0.362
26,GCACUCAGAACAACUAAAATT against 9030617O03Rik,inactive: 0.981

row,Sequence,z-score
1,CGCGGAGUUUCGAAGUGUCTT against Drd4,inactive: 0.109
2,GGUUUUUACAUCAUCUUGATT against Epb7.2,inactive: 2.52
3,CCUUGAAUCGGCCCUGAAATT against 1110020C03Rik,inactive: 0.801
4,GGAUGAACCACCACAAUUGTT against Olfr1233,inactive: -2.5
5,GGAUAAGGCCAUCAAGAAGTT against Rps26,inactive: -3.23
6,GGCACUUGCUCAUUCAUUCTT against AU021107,inactive: -0.235
7,GGGAGAAGAUAUGUUUUUATT against Sc5d,inactive: -0.619
8,GCUAAGAAUAGGAGUUAGATT against Esrrbl1,inactive: -0.29
9,GGAGAAGCUAAGUAACUUCTT against 2410018M14Rik,inactive: -0.456
10,GGAACAGAGACGAUACUCUTT against Fmr1nb,inactive: -0.154
11,GGUCUCCUAUAGCACACAGTT against Itgb4,inactive: -1.49
12,GGAGAAAAAAUUCUUAUCCTT against Hrmt1l1,inactive: 0.53
13,GGUCACCAAACAGCACGUGTT against Ctag3,inactive: 0.92
14,GGAGCUCUCGAAGGAUUGUTT against Eda2r,inactive: -1.73
15,GGACAAGUACGGAAAGCCCTT against Hdgfrp2,inactive: 0.0224
16,GGACAUGAACCUCUUCAAATT against Fads2,inactive: 0.824
17,GCUAUGUGAAAGGAACCGATT against Prim2,inactive: -0.757
18,CCAACUUCAUAAGAUGUACTT against Commd3,inactive: -0.17
19,CCUGUGUGUGAAUCUCGUUTT against C1qb,inactive: -1.49
20,GGAGAUAAAAAUCCAAGCATT against A030009B12Rik,inactive: 0.56
21,CGAGAGUGUGCCAAUAUUGTT against Tyrp1,inactive: -1.37
22,UACUCGUAUUCUUAAUUGCTT against Acsl1,inactive: -0.319
23,GGUGGAACAAGAAGAGUCCTT against Zfp307,inactive: -0.0578
24,GGUAGAGAAGAACGGUACCTT against A430031N04,inactive: 0.512
25,GCACCAUGUUCAUCUUUACTT against Tas2r144,inactive: -0.697
26,GGAAGAAAUGAGAAGGAUATT against Igsf4b,inactive: 0.635

# In a second layout: results already given
row	Sequence	z-score
1	CGCGGAGUUUCGAAGUGUCTT against Drd4	inactive: 0.109
2	GGUUUUUACAUCAUCUUGATT against Epb7.2	inactive: 2.52
3	CCUUGAAUCGGCCCUGAAATT against 1110020C03Rik	inactive: 0.801
4	GGAUGAACCACCACAAUUGTT against Olfr1233	inactive: -2.5
7	GGGAGAAGAUAUGUUUUUATT against Sc5d	inactive: -0.619
8	GCUAAGAAUAGGAGUUAGATT against Esrrbl1	inactive: -0.29
9	GGAGAAGCUAAGUAACUUCTT against 2410018M14Rik	inactive: -0.456
10	GGAACAGAGACGAUACUCUTT against Fmr1nb	inactive: -0.154
11	GGUCUCCUAUAGCACACAGTT against Itgb4	inactive: -1.49
13	GGUCACCAAACAGCACGUGTT against Ctag3	inactive: 0.92
14	GGAGCUCUCGAAGGAUUGUTT against Eda2r	inactive: -1.73
15	GGACAAGUACGGAAAGCCCTT against Hdgfrp2	inactive: 0.0224
17	GCUAUGUGAAAGGAACCGATT against Prim2	inactive: -0.757
18	CCAACUUCAUAAGAUGUACTT against Commd3	inactive: -0.17
19	CCUGUGUGUGAAUCUCGUUTT against C1qb	inactive: -1.49
20	GGAGAUAAAAAUCCAAGCATT against A030009B12Rik	inactive: 0.56
21	CGAGAGUGUGCCAAUAUUGTT against Tyrp1	inactive: -1.37
22	UACUCGUAUUCUUAAUUGCTT against Acsl1	inactive: -0.319
23	GGUGGAACAAGAAGAGUCCTT against Zfp307	inactive: -0.0578
24	GGUAGAGAAGAACGGUACCTT against A430031N04	inactive: 0.512
25	GCACCAUGUUCAUCUUUACTT against Tas2r144	inactive: -0.697
26	GGAAGAAAUGAGAAGGAUATT against Igsf4b	inactive: 0.635
